Results: paper PMC12431657, “Discovery and mechanistic insights of dibenzoylmethane as a broad spectrum inhibitor of coronavirus” (PLOS Pathogens, 2025)
Where a name gives a salt, the structure may show the parent alone. Read-outs that look alike come from different tables or passages of the source. The campaign covered roughly 3,300 compounds. About 60 (2%) showed an effect of 50% or more. This is one part of the list. Square brackets hold non-standard residues; d marks the D form. Peptide text beside a SMILES is read from it. * marks the point of attachment. Sta = CC(C)C[C@H](N)[C@@H](O)CC(=O)O; Isovaleryl = CC(C)CC(=O)*

Tested on: HCoV-OC43
Parameters: species or system RD; HTS, protection from HCoV-OC43 induced cell death, luminescent cell viability (CellCounting-Lite 2.0), inhibition rate
Details: 24 h post infection, 1 h compound pre-incubation, 10 µM, inhibitor

Row | Compound | OC43 Inhibition rate | OC43 Inhibition rate (OC43 Inhibition rate, 24 h)
1 | CCCCCCCCCCCCCCCC(=O)OC[C@H](CO)OC(=O)CCCCCCCCCCCCCCC [1,2-Dipalmitoyl-sn-glycerol] | -0.2% | 
2 | CC(C)CC(=O)N[C@H](C(=O)N[C@H](C(=O)N[C@@H](CC(C)C)[C@@H](O)CC(=O)N[C@@H](C)C(=O)N[C@@H](CC(C)C)[C@@H](O)CC(=O)O)C(C)C)C(C)C [Pepstatin] (Isovaleryl-VV[Sta]A[Sta]-OH) |  | 1.2%
3 | CC[C@H](C)[C@@H]1NC(=O)[C@@H]2CCCN2C(=O)[C@@H]2CCCN2C(=O)[C@@H]2CCCN2C(=O)[C@H](CC(C)C)NC(=O)CNC(=O)CNC(=O)[C@H](Cc2ccccc2)NC1=O [Heterophyllin B] (cyclo(FGGLPPPI)) | 1.8% | 
4 | Nc1ncnc2c1ncn2[C@@H]1O[C@H](CO)C[C@H]1O [Cordycepin] | -0.3% | 
5 | CC(=O)N[C@H]1[C@H]([C@H](O)[C@H](O)CO)OC(O)(C(=O)O)C[C@@H]1O (some centres unmarked) [N-Acetylneuraminic acid] | 2.9% | 
6 | OCc1cccc(O)c1 [KSD 2405] | 0.1% | 
7 | CC(C)[C@H](NC(=O)[C@H](CC(=O)O)NC(=O)[C@H](CCCCN)NC(=O)[C@@H](N)CCCN=C(N)N)C(=O)N[C@@H](Cc1ccc(O)cc1)C(=O)O [Thymopentin (acetate)] (H-RKDVY-OH) |  | 0%
8 | COc1cc2c(c(OC)c1OC)-c1c(cc3c(c1O)OCO3)C[C@H](C)[C@@H](C)C2 [Gomisin M2] | 3.4% | 
9 | OCc1ccc(O)cc1 [4-Hydroxybenzyl alcohol] | -0.1% | 
10 | COc1c2ccoc2c(O)c2oc(=O)ccc12 [8-Hydroxybergapten] | 5.8% | 
11 | CNc1ccccc1C(=O)OC [Methyl N-methylanthranilate] | -0.6% | 
12 | CC[C@H](C)C(=O)O[C@H]1C[C@H](O)C=C2C=C[C@H](C)[C@H](CC[C@@H](O)C[C@@H](O)CC(=O)O)[C@H]21 [Pravastatin (sodium)] | 3.1% | 
13 | COc1ccc2ccc(=O)oc2c1C[C@@H]1OC1(C)C [Meranzin] | -0.8% | 
14 | Cc1c(C)c2c(c(C)c1O)CC[C@@](C)(CCC[C@H](C)CCC[C@H](C)CCCC(C)C)O2 (racemic) [DL-alpha-Tocopherol] | 1.2% | 
15 | CC(C)[C@H](N)C(=O)NCCC(=O)O [H-Val-Ala-OH] | 0.2% | 
16 | CCCCCCCC(=O)OC [Methyl octanoate] | 0.1% | 
17 | CCCCC/C=C\C/C=C\CCCCCCCC(=O)OCC(O)CO (centres unmarked) [1-Linoleoyl Glycerol] | -0.1% | 
18 | CCC(O)C(=O)O (centres unmarked) [Sodium 2-hydroxybutanoate] | -6% | 
19 | C[C@H]1O[C@H](O[C@@H]2[C@@H](O)[C@H](OCCc3ccc(O)c(O)c3)O[C@H](CO[C@H]3OCC(O)(CO)[C@@H]3O)[C@H]2OC(=O)/C=C/c2ccc(O)c(O)c2)[C@@H](O)[C@@H](O)[C@@H]1O (some centres unmarked) [Forsythoside B] | -0.3% | 
20 | Cc1cc(=O)c2c(O)cc(O)cc2o1 [Noreugenin] | 0.1% | 
21 | CC(C)=CC/C=C(\C)[C@H]1CC[C@]2(C)[C@@H]1[C@H](O)C[C@@H]1[C@@]3(C)C[C@@H](O)[C@H](O[C@@H]4O[C@H](CO)[C@@H](O)[C@H](O)[C@H]4O[C@@H]4O[C@H](CO)[C@@H](O)[C@H](O)[C@H]4O)C(C)(C)[C@@H]3CC[C@]12C [Damulin A] | -0.5% | 
22 | CC(=O)NCC(=O)O [N-Acetylglycine] | -2% | 
23 | C=C(CCC=C(C)C)[C@H]1CC[C@]2(C)[C@@H]1[C@H](O)C[C@@H]1[C@@]3(C)CC[C@H](O[C@@H]4O[C@H](CO)[C@@H](O)[C@H](O)[C@H]4O[C@@H]4O[C@H](CO)[C@@H](O)[C@H](O)[C@H]4O)C(C)(C)[C@@H]3CC[C@]12C [Ginsenoside Rk1] | 16.3% | 

Row | Compound | OC43 Inhibition rate | OC43 Inhibition rate (OC43 Inhibition rate, 24 h)
24 | CCC(O)CC(=O)O (centres unmarked) [3-Hydroxyvaleric acid] | -1.3% | 
25 | Cc1cc(O)cc(O)c1C(=O)O [Orsellinic acid] | 0.5% | 
26 | COc1cc(-c2coc3c([C@@H]4O[C@H](CO)[C@@H](O)[C@H](O)[C@H]4O)c(O)ccc3c2=O)ccc1O [3'-Methoxypuerarin] | 0% | 
27 | C=C[C@]1(C)C[C@@H](OC(=O)CO)[C@]2(C)[C@H](C)CC[C@]3(CCC(=O)[C@H]32)[C@@H](C)[C@@H]1O [Pleuromutilin] | 40.2% | 
28 | O=C(/C=C/c1ccc(O)cc1)c1c(O)cc(O)cc1O [Naringenin chalcone] | 0.1% | 
29 | CC(=O)c1ccc(C)cc1C [2',4'-Dimethylacetophenone] | -0.9% | 
30 | C=CCc1ccc(OC)cc1 [Estragole] | -2.2% | 
31 | Nc1[nH]c(=O)nc2c1ncn2[C@@H]1O[C@H](CO)[C@@H](O)[C@H]1O [Crotonoside] | -0.2% | 
32 | O=c1oc2ccccc2cc1O [3-Hydroxycoumarin] | 0.2% | 
33 | COc1ccc2c(c1OC)CN1CCc3cc4c(cc3C1=C2)OCO4 [Dihydroberberine] | 0.6% | 
34 | C/C=C/SC[C@H](N)C(=O)O [S-1-Propenyl-L-cysteine] | 2.1% | 
35 | O=c1cccc2n1C[C@@H]1CNC[C@H]2C1 [Cytisinicline] | -0.4% | 
36 | CC/C=C\C/C=C\C/C=C\CCCCCCCC(=O)O [α-Linolenic acid] | 1.6% | 
37 | C[C@@H]1O[C@@H](O[C@H]2C(=O)c3c(O)cc(O)cc3O[C@@H]2c2ccc(O)c(O)c2)[C@H](O)[C@H](O)[C@H]1O [Astilbin] | -0.7% | 
38 | Cc1ccc(C(C)C)c(O)c1 [Thymol] | 2.3% | 
39 | NC[C@H]1O[C@H](O[C@H]2[C@H](O)[C@@H](O[C@H]3O[C@H](CO)[C@@H](O)[C@H](N)[C@H]3O)[C@H](N)C[C@@H]2N)[C@H](N)[C@@H](O)[C@@H]1O [Bekanamycin] | 6.3% | 
40 | COc1cc2c(cc1OC)-c1cc3ccc(OC)c(OC)c3c[n+]1CC2 [Palmatine (chloride)] |  | -0.5%
41 | C=CC(C)(O)CCC=C(C)C (centres unmarked) [Linalool] | 0.3% | 
42 | COc1cc(/C=C/CO)ccc1O[C@@H]1O[C@H](CO)[C@@H](O)[C@H](O)[C@H]1O [Coniferin] | -1.6% | 
43 | O=C(O)/C=C(\CC(=O)O)C(=O)O [trans-Aconitic acid] | -0.3% | 
44 | Oc1cc(O)cc(/C=C/c2ccc(O)c(O)c2)c1 [Piceatannol] | -0.2% | 
45 | CC[C@@]1(O)C(=O)OCc2c1cc1n(c2=O)Cc2cc3c(CN(C)C)c(O)ccc3nc2-1 [Topotecan (Hydrochloride)] | -8.4% | 
46 | CCCCCCCC/C=C\CCCCCCCC(=O)O [Sodium oleate] |  | -1.8%

4 entries from above in a different format.
Row	Compound	OC43 Inhibition rate	OC43 Inhibition rate (OC43 Inhibition rate, 24 h)
24	CCC(O)CC(=O)O (centres unmarked) [3-Hydroxyvaleric acid]	-1.3%	
25	Cc1cc(O)cc(O)c1C(=O)O [Orsellinic acid]	0.5%	
26	COc1cc(-c2coc3c([C@@H]4O[C@H](CO)[C@@H](O)[C@H](O)[C@H]4O)c(O)ccc3c2=O)ccc1O [3'-Methoxypuerarin]	0%	
27	C=C[C@]1(C)C[C@@H](OC(=O)CO)[C@]2(C)[C@H](C)CC[C@]3(CCC(=O)[C@H]32)[C@@H](C)[C@@H]1O [Pleuromutilin]	40.2%	

(listing goes on)

Row | Compound | OC43 Inhibition rate | OC43 Inhibition rate (OC43 Inhibition rate, 24 h)
47 | O=C(O)c1ccccc1O [Salicylic acid] |  | -0.7%
48 | O=Cc1c[nH]c2cccc(O)c12 [4-Hydroxy-1H-indole-3-carbaldehyde] | -0.2% | 
49 | C=CCSC[C@H](NC(=O)CC[C@H](N)C(=O)O)C(=O)O [γ-Glutamyl-S-allylcysteine] | 4.3% | 
50 | O=C1NCN(c2ccccc2)C12CCN(CCCOc1ccc(F)cc1)CC2 [Spiramide] | 69.6% | 
51 | CC[C@]12CCCN3CCc4c(n(c5ccccc45)[C@@](O)(C(=O)OC)C1)[C@@H]32 [Vincamine] | -0.1% | 
52 | CC(CC(=O)C[C@@H](C)[C@H]1CC(=O)[C@@]2(C)C3=C(C(=O)C[C@]12C)[C@@]1(C)CCC(=O)C(C)(C)[C@@H]1C[C@@H]3O)C(=O)O (some centres unmarked) [Ganoderic acid D] | 0% | 
53 | CNCC(O)c1ccc(O)cc1 (centres unmarked) [Synephrine (hydrochloride)] |  | 0.4%
54 | NC(N)=NCCCC[C@H](N)C(=O)O [H-HomoArg-OH.HCl] | 1.2% | 
55 | O=C(CCCCCCCCc1ccc(O)c(O)c1)c1c(O)cccc1O [Malabaricone C] | 12.2% | 
56 | CNC[C@@H]1CC[C@@H](N)[C@@H](O[C@H]2[C@H](O)[C@@H](O[C@H]3OC[C@](C)(O)[C@H](NC)[C@H]3O)[C@H](N)C[C@@H]2N)O1 [Micronomicin (sulfate)] | -0.4% | 
57 | CC(=O)O[C@H](CC(=O)[O-])C[N+](C)(C)C [Acetyl-L-carnitine (hydrochloride)] | 1.3% | 
58 | OC1COC(O)CO1 (centres unmarked) [1,4-Dioxane-2,5-diol] | 1.3% | 
59 | O=c1[nH]cc([C@@H]2O[C@H](CO)[C@@H](O)[C@H]2O)c(=O)[nH]1 [Pseudouridine] | 0.3% | 
60 | O=Cc1cc(O)ccc1O [2,5-Dihydroxybenzaldehyde] | -5% | 
61 | Cc1cc(O)c(C)c2c1O[C@](C)(CCC[C@H](C)CCC[C@H](C)CCCC(C)C)CC2 [β-Tocopherol] | 1.6% | 
62 | CC(=O)[C@H]1CC[C@H]2[C@@H]3C[C@H](O)[C@H]4C[C@@H](O)CC[C@]4(C)[C@H]3CC[C@]12C [5α-Pregnane-3β,6α-diol-20-one] | 0.1% | 
63 | O=c1cc(O)cc(/C=C/c2ccc(O)c(O)c2)o1 [Hispidin] | 0.1% | 
64 | COc1c(O)cc(O)c2c(=O)cc(-c3ccccc3)oc12 [Wogonin] | 5.8% | 
65 | C[C@@H](O)CC(=O)O [(R)-3-Hydroxybutanoic acid (sodium)] |  | 3.4%
66 | CCCCCCCCCCCC(=O)O [Lauric acid] | 4% | 
67 | Oc1cc(O)cc(/C=C/c2c(O)cccc2O)c1 [Gnetol] | -1% | 
68 | COC(=O)/C=C/c1ccc(O)c(O)c1 [Methyl caffeate] | 3% | 
